From article PMC12040169 (PLOS Biology, 2025)
Read-outs that look alike come from different tables or passages of the source. This is one part of the list.

Tested on: T1, CTL2-GFP (C. trachomatis L2/434/Bu, GFP-expressing)
T1 construct: L2/434/Bu, GFP-expressing
Parameters: species or system HeLa; Intracellular C. trachomatis growth in HeLa cells, bulk GFP fluorescence relative to DMSO
Details: bulk GFP, single well, 28.5 h, 10 µM, inhibitor

SMILES	% of control remaining [%]	% of control remaining (Bulk GFP fluorescence) [%]
O=C(Nc1ccccc1)c1ccc(N2CCN(c3ccccn3)CC2)c(S(=O)(=O)N2CCOCC2)c1 [CBK266810]	125.458	
COC(=O)C1=C(Cn2ccc(C(F)(F)F)n2)NC(=O)NC1c1cc(C)ccc1C (stereo not drawn) [CBK268792]	72.8295	
COc1ccc(S(=O)(=O)N(c2ccccc2)C2CCNCC2)cc1OC [CBK165076T]	141.188	
OC(Cn1ccnc1)C1CCCCC1 (stereo not drawn) [CBK010092]	141.207	
O=C1NCCCCC1N1CCS(=O)(=O)CC1 (stereo not drawn) [CBK017083]	135.087	
Cc1c(Cl)ccc2c(C(=O)Nc3ccc(S(=O)(=O)N4CCOCC4)cc3)cc(-c3cccnc3)nc12 [CBK267718]	139.339	
CN(C)S(=O)(=O)Nc1cccc2cc[nH]c12 [CBK159505]	96.7631	
COc1ncc(C(=O)NCc2cccnc2N(C)C2CCCCC2)cn1 [CBK306870]	174.897	
CC1(OCCCN2CCCCC2)SC(NC2CC3CCC2C3)=NC1=O (stereo not drawn) [CBK115611]	128.674	
O=C(O)C(CCCCN1C(=O)c2ccccc2C1=O)N1C(=O)c2ccccc2C1=O (stereo not drawn) [CBK265250]	100	
CC1=NN(c2ccc(S(N)(=O)=O)cc2)C(=O)/C1=C\c1ccc(-c2cccc(C(=O)O)c2)o1 [CBK263483]	111.114	
COc1cccc(Cc2c(C)nc3c(C(=O)NCC4COc5ccccc5O4)cnn3c2C)c1 (stereo not drawn) [CBK162064]	100.235	
CC(C)C(=O)Nc1ccc2c(-c3ccc4c(c3)OCCCO4)ccnc2n1 [CBK073675]	121.207	
CC(=O)Nc1ccc(CNc2ccc(C#N)cn2)cc1 [CBK297790]	130.487	
O=C(c1ccccc1C(F)(F)F)N1CCC(n2c(=O)[nH]c3ccccc32)CC1 [CBK149706]	77.3286	
CCOC(=O)COc1c(Cl)cc(/C=C/c2[nH]c(=O)[nH]c(=O)c2[N+](=O)[O-])cc1Cl [CBK267003]	118.031	
O=C(c1ccoc1)N1CCC2(CCCN(Cc3ccc4ccccc4c3)C2)C1 (stereo not drawn) [CBK132811]	70.4231	
CC(=O)N[C@H]1CO[C@H]2[C@@H]1OC[C@@H]2Nc1nccc(-c2cccc(F)c2)n1 [CBK289534]	103.231	
COc1ccc(C(C)C)cc1-c1cn2ccnc2c(NC2CCOCC2)n1 [CBK066320]	146.611	
COc1ccc2nc(-n3nc(C(=O)NCc4ccncc4)c4ccccc43)sc2c1 [CBK048521]	118.392	
Cc1cc(/C=C(/C#N)c2cccc(F)c2)c(C)n1-c1ccc(S(N)(=O)=O)cc1 [CBK268268]	93.777	
O=C(O)c1cccc(NC(=O)c2ccc(COc3ccc(-c4ccccc4)cc3)o2)c1 [CBK299778]	135.719	
O=C(Nc1nnc(C2=COCCO2)o1)c1ccco1 [CBK287412]	142.866	
CCN(Cc1ccccc1)c1ccc(C2NC(=O)NC(O)(C(F)(F)F)C2C(=O)c2cccnc2)cc1 (stereo not drawn) [CBK264999]	140.429	

Structures above with a Cl atom:
SMILES	% of control remaining [%]	% of control remaining (Bulk GFP fluorescence) [%]
Cc1c(Cl)ccc2c(C(=O)Nc3ccc(S(=O)(=O)N4CCOCC4)cc3)cc(-c3cccnc3)nc12 [CBK267718]	139.339	
CCOC(=O)COc1c(Cl)cc(/C=C/c2[nH]c(=O)[nH]c(=O)c2[N+](=O)[O-])cc1Cl [CBK267003]	118.031	

Continuation.

SMILES	% of control remaining [%]	% of control remaining (Bulk GFP fluorescence) [%]
CCCc1nnc(C(=O)NC(=O)NCCCN(C)C)s1 [CBK018853]	113.154	
Cc1nn(CC(=O)N2C(C)CCCC2C)c(=O)c2cc3occc3n12 (stereo not drawn) [CBK283555]	109.299	
O=C1CC[C@@H](NCc2ccccn2)[C@H](c2cc(F)cc(F)c2)N1 [CBK282911]	78.5935	
O=C(NC1CCCCC1)O[C@@H]1CO[C@H]2[C@@H]1OC[C@@H]2NS(=O)(=O)Cc1ccccc1 [CBK289467]	119.941	
COc1cccc(NC(=O)c2ccncc2Cl)c1 [CBK174695]	111.23	
O=C(O)C(Cc1ccccc1)Nc1ncnc2c1oc1ccccc12 (stereo not drawn) [CBK266719]	120.412	
O=C(c1cc(S(=O)(=O)NCc2ccco2)c(Cl)cc1Cl)N1CCC1 [CBK305004]	113.175	
CC(SCc1ccccc1)C(=O)NCC1CCN(c2ccccc2)C1 (stereo not drawn) [CBK298329]	137.816	
O=C(COc1ccccc1)Nc1ccc(N2CCOCC2)c2nonc12 [CBK268149]	93.1146	
C=CCn1c(CCCNC=O)nc2ccccc21 [CBK269375]	158.162	
CC(O)c1cc2c(cc1NC(=O)c1cnn3c1NC(c1ccco1)CC3C(F)(F)F)OCO2 (stereo not drawn) [CBK268850]	153.108	
COc1ccc(OC)c(-n2cnc3c2NC(=O)CC3c2ccccc2Cl)c1 (stereo not drawn) [CBK287983]	121.815	
CC(C)NC(=O)c1cc(C2CCN(C(=O)CCOc3ccccc3F)C2)nc2ccccc12 (stereo not drawn) [CBK285917]	91.7158	
CN1CCN(C)C(COc2cc(C(F)(F)F)ccn2)C1 (stereo not drawn) [CBK113460]	102.125	
CN1C(=O)c2ccccc2C(=O)[C@@]2(C)CN(C(=O)c3ccccc3)C[C@@H]12 [CBK281685]	134.294	
Cc1c(C(=O)O)sc2nc(SCC(=O)NCc3ccccc3)[nH]c(=O)c12 [CBK287609]		109.85
CCNC(=S)N1CCN(CCNC=C2C(=O)CC(c3ccco3)CC2=O)CC1 (stereo not drawn) [CBK264742]	119.529	
Cc1nnc(SCC(=O)Nc2nsc(-c3ccc(Cl)cc3)n2)s1 [CBK266525]	120.893	
COc1ccc([C@@]23CC[C@@H](NC(=O)Cc4ccc(Cl)cc4)CC2N(C)CC3)cc1OC (stereo partly drawn) [CBK074971T]	114.583	
COc1cccc(OC)c1-c1cn2ccnc2c(N(C)CCN(C)C)n1 [CBK066398]	188.984	
Cn1c(N2CCCC(C(=O)NCC3CC3)C2)nc2ccccc21 (stereo not drawn) [CBK283987]	121.192	
CCN(CC)C(=O)CN1C(=O)N2CCCN=C2c2ccc(Cl)cc21 [CBK284386]	100.928	
O=c1[nH]c2ncc(-c3cccnc3)nc2n1Cc1ccc(Cl)cc1 [CBK064561]	120.679	
Cc1cc(C)nc(Nc2ccc(C3CCCN(C(=O)c4c(C)oc5c4CCCC5)C3)nc2)n1 (stereo not drawn) [CBK285988]	117.829	
